The list shows a part of the results.
Target: T1, OsSMF1 (Oryza sativa, UniProt Q6ZLB0 1-436)
T1 sequence: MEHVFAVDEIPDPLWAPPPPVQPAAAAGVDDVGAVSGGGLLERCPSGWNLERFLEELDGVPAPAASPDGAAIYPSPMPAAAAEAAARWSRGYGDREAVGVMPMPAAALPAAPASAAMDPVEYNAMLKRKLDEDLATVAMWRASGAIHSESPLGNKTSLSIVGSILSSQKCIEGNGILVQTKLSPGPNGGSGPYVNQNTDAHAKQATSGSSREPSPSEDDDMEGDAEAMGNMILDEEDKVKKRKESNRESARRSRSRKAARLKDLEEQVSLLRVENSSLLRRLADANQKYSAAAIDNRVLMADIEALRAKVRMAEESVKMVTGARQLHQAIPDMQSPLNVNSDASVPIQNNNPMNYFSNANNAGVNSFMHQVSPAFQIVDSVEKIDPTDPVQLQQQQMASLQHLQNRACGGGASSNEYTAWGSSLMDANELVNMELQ
Assay: protein-binding microarray (RPBM); PBS, 2% BSA, 51.3 ng/ul salmon testes DNA, 50 uM zinc acetate, 200 nM TF, 25 C, 1 h; high values mean tight binding
Settings: protein: recombinant; tags: N-terminal polyhistidine and DsRed monomer fusion (pET32a); chain copies: 2; label: CyDye5-dUTP incorporated in the synthesized complementary strand; 3' TTTTT single-stranded linker to array surface; dsDNA, one strand shown
Outline: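 An Axon 4000B scanner gave the binding signal as per-feature fluorescence intensity in arbitrary units. This followed washing of a custom Agilent array that had been incubated for 1 h at 25 °C with 200 nM protein in PBS, 2% BSA, salmon testes DNA and 50 µM zinc acetate. The proteins were transcription factors fused at the N-terminus to polyhistidine and DsRed, expressed in E. coli BL21-CodonPlus and purified on Ni–NTA.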

Sequence | binding signal
ATCATCAAGATTGATCCAAGAAGGAGCGAGAGCTTAGCTTCGGAGTCACCTAGTGCAG | 32200 fluorescence intensity (a.u.)
AGAATGCTTAGTCATTTGGGTCGAGGAGGGTAAGTCCTCCCGGAGTCACCTAGTGCAG | 6050 fluorescence intensity (a.u.)
TCCATGGCGGCTGGCTATACCTTTCTGCACTACATTTGCACGGAGTCACCTAGTGCAG | 34100 fluorescence intensity (a.u.)
GATGTTTCGGATGACAAGTTCCTGTCATCGCATCTGATTTCGGAGTCACCTAGTGCAG | 3520 fluorescence intensity (a.u.)
TCAAGATCATGAAAACCTTAACTTCCCTATATTTCACTTACGGAGTCACCTAGTGCAG | 24600 fluorescence intensity (a.u.)
CATCCTCGCCGTCATTTTGCGCCGCCTCTTGGACACCCGCCGGAGTCACCTAGTGCAG | 3460 fluorescence intensity (a.u.)
CAAACAAACCGCTCGTGTGCACAATACTACCAAATCAACGCGGAGTCACCTAGTGCAG | 3370 fluorescence intensity (a.u.)
CTCCTCCTCCGGCCACGTCGACGTCGCACCAACCGCCGCCCGGAGTCACCTAGTGCAG | 14700 fluorescence intensity (a.u.)
CGCTGGGACTTCTCTGCTATCTTTTCCTGTGTCTACATTTCGGAGTCACCTAGTGCAG | 32800 fluorescence intensity (a.u.)
CTCCTTGACAACCAGCACCGATCCCTGAGTCACCCAACGACGGAGTCACCTAGTGCAG | 6120 fluorescence intensity (a.u.)
CGTACGCGTGGTGTGGATAAGCCGCTTGTGGCCGCCTCACCGGAGTCACCTAGTGCAG | 3520 fluorescence intensity (a.u.)
GTCGCGTGACTCGCATCACCCCTCACCACAACGATGCGAGCGGAGTCACCTAGTGCAG | 3170 fluorescence intensity (a.u.)
TAGTTTAAACTTAAAAGGGTGCTAAGTCATTGGTGTTGCCCGGAGTCACCTAGTGCAG | 3320 fluorescence intensity (a.u.)
TTCTCTGTAGAAGAAGAGAGTTGATTCAATTTATAAGGAACGGAGTCACCTAGTGCAG | 37900 fluorescence intensity (a.u.)
AGAAAGTAACAATCCCGCTATTATTACGTCATATTTCCGCCGGAGTCACCTAGTGCAG | 7860 fluorescence intensity (a.u.)
ATACGTGTGCCACGTTGGCCAAAACCGCTTTAGATTAGGTCGGAGTCACCTAGTGCAG | 10900 fluorescence intensity (a.u.)
GGCCGATGAAGCCCCACCAGTCGTGGTCGGCGACGTGGCGCGGAGTCACCTAGTGCAG | 7250 fluorescence intensity (a.u.)
GTGGGTAGTGACATGTCATCATGTATAGAATGGATAGCTACGGAGTCACCTAGTGCAG | 6480 fluorescence intensity (a.u.)
CGTCTCGCCTCCTGCCTCCCCGTGCCGCCGCACCACCGCGCGGAGTCACCTAGTGCAG | 4000 fluorescence intensity (a.u.)
AAGGCCAGCACACACATCACACTACCACTGATGATAGTGTCGGAGTCACCTAGTGCAG | 5020 fluorescence intensity (a.u.)
GATTCCCGCCATCTCTATCCTCCTACTCGTCGCTGTCATCCGGAGTCACCTAGTGCAG | 3360 fluorescence intensity (a.u.)

No new results follow: entries from further up.
Sequence | binding signal
CTCCTCCTCCGGCCACGTCGACGTCGCACCAACCGCCGCCCGGAGTCACCTAGTGCAG | 14700 fluorescence intensity (a.u.)
CGCTGGGACTTCTCTGCTATCTTTTCCTGTGTCTACATTTCGGAGTCACCTAGTGCAG | 32800 fluorescence intensity (a.u.)
CTCCTTGACAACCAGCACCGATCCCTGAGTCACCCAACGACGGAGTCACCTAGTGCAG | 6120 fluorescence intensity (a.u.)

Later entries

Sequence | binding signal
CCCTGCTCTGCCACGCCCGCCACCGTCTGCCGGCCTCTACCGGAGTCACCTAGTGCAG | 4730 fluorescence intensity (a.u.)
CGTCCGATCACACGTGAGCGTCCCAGATCTTACGTCGTTTCGGAGTCACCTAGTGCAG | 4330 fluorescence intensity (a.u.)
TTTGGACAAAATGTAGCTCTAATGCTGAGTAGATATCGTCCGGAGTCACCTAGTGCAG | 4030 fluorescence intensity (a.u.)
TACGTACATACCACCCTGCGCTTGTCATCAAACAACGGTCCGGAGTCACCTAGTGCAG | 4720 fluorescence intensity (a.u.)
TCTCGAAGGCATCCAGCTCACGGCATCTCACGCTGTCTTCCGGAGTCACCTAGTGCAG | 5400 fluorescence intensity (a.u.)
GTTTACACCTGTTGTACCAGTGCCCAGTGAACTGGCCGTTCGGAGTCACCTAGTGCAG | 3170 fluorescence intensity (a.u.)
TCGGTTAGGTCTTATATTGCCCACCCCTACGTACACAATGCGGAGTCACCTAGTGCAG | 3210 fluorescence intensity (a.u.)
AGCTCGTGTAGTTCTGAAATGATCAGATCACCATATGACACGGAGTCACCTAGTGCAG | 3450 fluorescence intensity (a.u.)
GGAATAATAATGAGAAATGTGGTGATATTTGTCACGTCAGCGGAGTCACCTAGTGCAG | 5300 fluorescence intensity (a.u.)
CGTCGTTGTCTTCGCGTCGGTCCTGACCGCGACCCGACATCGGAGTCACCTAGTGCAG | 3500 fluorescence intensity (a.u.)
TTCTGCGGGCCGTTCAGCTACTGCGTCAGCAGCGTCGACCCGGAGTCACCTAGTGCAG | 5910 fluorescence intensity (a.u.)
AGGTGGTGGTGGTGGCAGAGACGTGCGCTCGAACGATTTCCGGAGTCACCTAGTGCAG | 33500 fluorescence intensity (a.u.)
TTGAATGGTGATGTAACTTGCATGGTTCTACACTTGATGACGGAGTCACCTAGTGCAG | 3610 fluorescence intensity (a.u.)
TCCCGCCAAACTTCGTCCGCCAGCTCAGCACCAAGGCCCGCGGAGTCACCTAGTGCAG | 7630 fluorescence intensity (a.u.)
GCGCGCGTGCACGCCGCGGTCACCGTGGCGAGCGTGGCGGCGGAGTCACCTAGTGCAG | 3620 fluorescence intensity (a.u.)
CTACCATATTCTATCCATCTCCAAGTCCAGTGACTCAGTACGGAGTCACCTAGTGCAG | 7060 fluorescence intensity (a.u.)
CTGAACCCCTGCCTGCTCACCGTCACCGACGAGGACGCCGCGGAGTCACCTAGTGCAG | 3620 fluorescence intensity (a.u.)
GAGGAGGCTGCGCCGGCGAGGTCACGTCATGCTCTCTCTGCGGAGTCACCTAGTGCAG | 4610 fluorescence intensity (a.u.)
CCCCGCCAAAACCGCTGCCACGTCGTCGTCTCCCGCCAAACGGAGTCACCTAGTGCAG | 8840 fluorescence intensity (a.u.)
TGGAGCAATTATCAGACAATGCTGACGCACAAGAATTCTTCGGAGTCACCTAGTGCAG | 8420 fluorescence intensity (a.u.)
TTTATAAGAAACGGCCGTGTTTGGTGGTGGGTGTTGGGAACGGAGTCACCTAGTGCAG | 3400 fluorescence intensity (a.u.)

Source: paper PMC7819943, “Rice protein-binding microarrays: a tool to detect cis-acting elements near promoter regions in rice”
